US20110271408A1
No constants are given. Whether binding was seen depends on the method and setting. Some binding calls cover weakened binding; strength is not graded here.

Sequences of proteins named here, by UniProt entry; tags and fusion partners are left off. A change or cut given only in a name is not applied to a line headed by its entry.
UniProt Q9CAJ0: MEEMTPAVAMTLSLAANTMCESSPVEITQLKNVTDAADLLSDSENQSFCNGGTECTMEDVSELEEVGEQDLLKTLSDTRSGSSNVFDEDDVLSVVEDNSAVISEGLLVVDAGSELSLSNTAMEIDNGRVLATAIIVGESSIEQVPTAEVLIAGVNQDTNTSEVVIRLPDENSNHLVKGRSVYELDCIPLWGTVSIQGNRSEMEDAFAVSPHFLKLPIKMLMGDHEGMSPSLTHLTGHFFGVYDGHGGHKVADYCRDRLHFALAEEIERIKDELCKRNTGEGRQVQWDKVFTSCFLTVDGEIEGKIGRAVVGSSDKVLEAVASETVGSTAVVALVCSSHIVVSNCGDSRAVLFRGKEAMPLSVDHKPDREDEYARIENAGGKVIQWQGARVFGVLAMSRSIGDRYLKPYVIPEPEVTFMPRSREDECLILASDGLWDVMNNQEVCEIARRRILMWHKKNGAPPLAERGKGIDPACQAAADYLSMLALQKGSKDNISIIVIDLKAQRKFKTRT
UniProt O49686: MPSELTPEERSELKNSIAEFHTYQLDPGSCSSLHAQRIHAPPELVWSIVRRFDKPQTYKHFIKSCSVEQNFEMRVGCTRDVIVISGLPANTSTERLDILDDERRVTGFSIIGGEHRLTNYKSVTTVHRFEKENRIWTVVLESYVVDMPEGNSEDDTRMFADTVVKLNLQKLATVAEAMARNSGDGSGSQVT

Columns and labels:
[1] = molecular target: HAB1-GAL4 AD (Gal4 activation domain (AD)-PP2C fusion protein encoded by pAD-HAB1) (UniProt Q9CAJ0); assay: yeast two-hybrid X-gal staining (Y190 pAD-HAB1) on a range of fenhexamid concentrations
[2] = molecular target: HAB1-GAL4 AD (Gal4 activation domain (AD)-PP2C fusion protein encoded by pAD-HAB1) (UniProt Q9CAJ0); assay: yeast two-hybrid growth on media lacking uracil (MAV99 pAD-HAB1), 20 µM fenhexamid
[3] = molecular target: HAB1-GAL4 AD (Gal4 activation domain (AD)-PP2C fusion protein encoded by pAD-HAB1) (UniProt Q9CAJ0); assay: yeast two-hybrid growth on media lacking uracil (MAV99 pAD-HAB1), 1.5 µM fenhexamid

PYR1 K59R, Y120H, M158I triple mutant, GAL4 BD fusion (pBD-PYR1) (from UniProt O49686 1-191) (receptor)
binding [1]: binds

PYR1 mutant 27B-1 (P42S, K59R, D97N, Y120H, V163I, A172T), GAL4 BD fusion (from UniProt O49686 1-191) (receptor)
binding [2]: binds

PYR1 mutant 27B-2 (P42S, L44F, K59R, Y120H, V138M, M158I), GAL4 BD fusion (from UniProt O49686 1-191) (receptor)
binding [2]: binds

PYR1 mutant 27B-3 (P42S, K59R, Y120H, V123I, V139I, M158I), GAL4 BD fusion (from UniProt O49686 1-191) (receptor)
binding [2]: binds

PYR1 mutant 27B-4 (S47P, V49I, K59R, Y120H, M158I, A177T), GAL4 BD fusion (from UniProt O49686 1-191) (receptor)
binding [2]: binds

PYR1 mutant 27B-7 (K59R, V81M, Y120C, M158I, V163I), GAL4 BD fusion (from UniProt O49686 1-191) (receptor)
binding [2]: binds

PYR1 mutant 27C-1 (P27L, P42S, K59R, D97N, Y120H, M158I, T173A), GAL4 BD fusion (from UniProt O49686 1-191) (receptor)
binding [3]: binds

PYR1 mutant 27C-2 (P42S, K59R, R74C, Y120H, M158I), GAL4 BD fusion (from UniProt O49686 1-191) (receptor)
binding [3]: binds

PYR1 mutant 27C-3 (S29N, K59R, D97N, Y120H, V163I, A72T as printed), GAL4 BD fusion (from UniProt O49686 1-191) (receptor)
binding [3]: binds

PYR1 mutant 27C-5 (P42S, K59R, Y120H, V123I, V139I, M158I, V163I), GAL4 BD fusion (from UniProt O49686 1-191) (receptor)
binding [3]: binds

PYR1 mutant 27C-16 (K59R, V81M, Y120H, M158I, V163I), GAL4 BD fusion (from UniProt O49686 1-191) (receptor)
binding [3]: binds

PYR1 mutant 27C-18 (E12K, K59R, V75I, D97N, Y120H, V163I, A172T), GAL4 BD fusion (from UniProt O49686 1-191) (receptor)
binding [3]: binds

PYR1 mutant 27C-19 (L33F, P42S, K59R, Y120H, V123I, M158I), GAL4 BD fusion (from UniProt O49686 1-191) (receptor)
binding [3]: binds

PYR1 mutant 27C-20 (P42S, K59R, Y120H, M158I, V163I, V174I), GAL4 BD fusion (from UniProt O49686 1-191) (receptor)
binding [3]: binds

PYR1 mutant 27C-21 (R10Q, P42S, K59R, D97N, Y120H, V163I, A172T), GAL4 BD fusion (from UniProt O49686 1-191) (receptor)
binding [3]: binds
